Where a name gives a salt, the structure may show the parent alone. The list shows a part of the results. Small differences around the control level are noise.
Each compound was assayed on hPSC-derived cortical neurons (WA09) (assay: KCl-induced FOS+/EGR-1+ double-positive nuclei fraction z-score (KCl minus unstimulated); higher = stronger activity-induced IEG response). Conditions: 5 µM; treatment: days 7-14 after plating, readout day 21.

Compound	KCl-induced FOS+/EGR-1+ double-positive nuclei fraction z-score
C#C[C@]1(O)CC[C@H]2[C@@H]3CCC4=CC(=O)CC[C@@H]4[C@H]3CC[C@@]21C [Norethindrone]	-0.605
CN(C)c1nc(N(C)C)nc(N(C)C)n1 [Altretamine]	1.01
COc1cc(N2CCC(N)CC2)ccc1Nc1ncc(Cl)c(-c2c[nH]c3ccccc23)n1	-0.494
CCCCCCNC(=O)n1cc(F)c(=O)[nH]c1=O [Carmofur]	-0.146
NNC(=O)c1ccncc1.Nc1ccc(C(=O)O)c(O)c1 [Pasiniazid]	-0.898
COc1c2ccoc2cc2oc(=O)ccc12 [Bergapten]	-1.84
CO/N=C(\C(=O)N[C@@H]1C(=O)N2C(C(=O)O)=C(COC(C)=O)CS[C@H]12)c1csc(N)n1 [Cefotaxime sodium]	-0.00495
C=CCNC1=C2C[C@@H](C)C[C@H](OC)[C@H](O)[C@@H](C)/C=C(\C)[C@H](OC(N)=O)[C@@H](OC)/C=C\C=C(/C)C(=O)NC(=CC1=O)C2=O [17-AAG (Tanespimycin)]	-0.0379
C=CC(=O)Nc1cccc(Oc2nc(Nc3ccc(N4CCN(C)CC4)cc3)nc3ccsc23)c1	-0.844
CC(S)C(=O)NCC(=O)O (centres undefined) [Tiopronin]	0.18
O=C(O)CC[C@@H](O)C(=O)O [Disodium (R)-2-Hydroxyglutarate]	0.506
CNC(=O)Nc1ccc(-c2nc(N3CC4CCC(C3)O4)c3cnn(C4CCC5(CC4)OCCO5)c3n2)cc1	-1.14
Cn1cc(-c2ccc(S(=O)(=O)n3ccc(/C=C/C(=O)Nc4ccccc4N)c3)cc2)cn1	0.446
Nc1ncnc2c1c(-c1cccc(OCc3ccccc3)c1)cn2C1CC(CN2CCCC2)C1 (centres undefined)	4.95
CN(C)C(=O)c1ccc(S(=O)(=O)c2ccc(NC(=O)[C@@](C)(O)C(F)(F)F)c(Cl)c2)cc1	0.353
CO[C@@]12[C@H](COC(N)=O)C3=C(C(=O)C(C)=C(N)C3=O)N1C[C@@H]1N[C@@H]12 [Mitomycin C]	12.8
CCOC(=O)C1=C(C)NC(C)=C(C(=O)OC)C1c1cccc([N+](=O)[O-])c1 (centres undefined) [Nitrendipine]	-0.404
C#Cc1cccc(Nc2ncnc3cc(OCCOC)c(OCCOC)cc23)c1 [Erlotinib HCl (OSI-744)]	1.22
CC(N)C12CC3CC(CC(C3)C1)C2 (centres undefined) [Rimantadine]	0.722
O=C(Nc1cccc2cccnc12)c1ccc(N2C(=O)[C@@H]3[C@H](C2=O)[C@@H]2C=C[C@H]3C2)cc1 [IWR-1-endo]	1.51

Part of the list above in order of formula weight, descending.
Compound	KCl-induced FOS+/EGR-1+ double-positive nuclei fraction z-score
Nc1ncnc2c1c(-c1cccc(OCc3ccccc3)c1)cn2C1CC(CN2CCCC2)C1 (centres undefined)	4.95
COc1cc(N2CCC(N)CC2)ccc1Nc1ncc(Cl)c(-c2c[nH]c3ccccc23)n1	-0.494
Cn1cc(-c2ccc(S(=O)(=O)n3ccc(/C=C/C(=O)Nc4ccccc4N)c3)cc2)cn1	0.446
C#Cc1cccc(Nc2ncnc3cc(OCCOC)c(OCCOC)cc23)c1 [Erlotinib HCl (OSI-744)]	1.22
CCOC(=O)C1=C(C)NC(C)=C(C(=O)OC)C1c1cccc([N+](=O)[O-])c1 (centres undefined) [Nitrendipine]	-0.404
CO[C@@]12[C@H](COC(N)=O)C3=C(C(=O)C(C)=C(N)C3=O)N1C[C@@H]1N[C@@H]12 [Mitomycin C]	12.8
CCCCCCNC(=O)n1cc(F)c(=O)[nH]c1=O [Carmofur]	-0.146
CN(C)c1nc(N(C)C)nc(N(C)C)n1 [Altretamine]	1.01
CC(N)C12CC3CC(CC(C3)C1)C2 (centres undefined) [Rimantadine]	0.722

Following part:

Compound	KCl-induced FOS+/EGR-1+ double-positive nuclei fraction z-score
N#C/C(=C1/SC[C@@H](c2ccc(Cl)cc2Cl)S1)n1ccnc1 [Luliconazole]	-0.379
O=C(O)c1ccc2c(c1)nc(Nc1cccc(Cl)c1)c1ccncc12 [CX-4945 (Silmitasertib)]	1.15
CN(C)CCOc1ccc(-c2nc(-c3ccncc3)c(-c3ccc4c(c3)CC/C4=N\O)[nH]2)cc1	-0.684
CN1[C@@H]2CC[C@H]1C[C@@H](OC(c1ccccc1)c1ccccc1)C2 [Benztropine mesylate]	-0.93
c1ccc(-c2ccc(C(c3ccccc3)n3ccnc3)cc2)cc1 (centres undefined) [Bifonazole]	1.43
CNCc1ccc(C)c(NC(=O)c2ccc(Nc3nc(-c4ccccc4)c4ccccc4n3)cc2)c1	-6.62
CC(=O)NC(CC(C)C)C(=O)O (centres undefined) [Acetylleucine]	0.439
CCCCOc1ccc(C(=O)CCN2CCCCC2)cc1 [Dyclonine HCl]	1.35
Clc1ccc(COC(Cn2ccnc2)c2ccc(Cl)cc2Cl)cc1 (centres undefined) [Econazole nitrate]	0.206
OC(CC1c2ccccc2-c2cncn21)C1CCCCC1 (centres undefined)	-0.0268
O=C1c2c(O)cccc2C([C@@H]2O[C@H](CO)[C@@H](O)[C@H](O)[C@H]2O)c2cc(CO)cc(O)c21 (some centres undefined) [Aloin]	0.265
CN1CC(=O)N2[C@H](c3ccc4c(c3)OCO4)c3[nH]c4ccccc4c3C[C@@H]2C1=O [Tadalafil]	0.427
CNCC[C@H](Oc1cccc2ccccc12)c1cccs1 [Duloxetine HCl]	-0.67
O=C(O)Cc1ccccc1Nc1c(Cl)cccc1Cl [Diclofenac Diethylamine]	1.69
CCN1CCN(Cc2ccc(-c3cc4c(N[C@H](C)c5ccccc5)ncnc4[nH]3)cc2)CC1	-0.388
N=C(N)NC(=N)NCCc1ccccc1 [Phenformin HCl]	0.463
CC1=Nc2ccc(Cl)cc2S(=O)(=O)N1 [Diazoxide]	1.2
O=C(Nc1ccc(OC(F)(F)F)cc1)c1sccc1NCc1ccnc2ccccc12	4.01
Cc1c(NC(=O)OC[C@@H]2COCCN2)cn2ncnc(Nc3ccc4c(cnn4Cc4cccc(F)c4)c3)c12	0.0128

Reference: the supplement of paper PMC11348887
